# Screen size: about 340,000 compounds; about 170 (0.05%) were called active. This list was built around the results that the source calls inconclusive (neither active nor inactive); the mix of calls is not that of the screen. Calls come from the whole dose curve; as a rule, active = well fitted inhibition curve with a large enough effect in the signal ratio, with a control signal flat (not every such curve was filed as active); inconclusive = small, poorly fitted or top-dose-only effect, or effect the other way, or a change in a side signal; inactive = flat fitted curve, though single readings scatter; the % refers to the signal ratio. Potencies beside an inconclusive call are fits to weak or partial responses and may not hold up.
# Assay: qHTS Assay to Find Inhibitors of Chronic Active B-Cell Receptor Signaling;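 for activity change, negative = inhibition: plate controls were basal doxycycline-induced cells for no effect and cells given 10 µM MG132 for full effect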
# Conditions: ABC-DLBCL IkBa-CBG/CBR reporter, luminescence ratio (green luciferase fused to IkBa over red control in TMD8 lymphoma cells), 4 h; activity change, negative = inhibition: at 46.1 µM (top of the series) unless noted
# Procedure, shortened: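 Compounds up to 46 uM were incubated four hours with TMD8 cells whose green CBG68 luciferase is fused to IkappaBalpha; red CBR luminescence normalised the signal, and concentration-effect curves were fitted to fusion, red and ratio data.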
# Potency is the fitted concentration of half-maximal effect.
SMILES,Potency,"activity change, negative = inhibition"
N#C/C(=C/c1cccc([N+](=O)[O-])c1)c1nnc2n1CCCCC2,"inconclusive: 32.6 µM [falling, partial curve, poor fit]",
O=C(NC1CC1)C1=C[C@@H](C2CCCCC2)C[C@@H](OCc2ccc(CO)cc2)O1,,inconclusive: -12.5%
COc1cccc(NC(=O)N(CCCN2CCOCC2)C(C)c2cc3ccccc3o2)c1 (stereo not drawn),,inconclusive: -21.9%
CC(=O)n1cc([C@@H]2C=C(C(=O)Nc3ccccc3)O[C@H](OCc3ccc(CO)cc3)C2)c2ccccc21,"inconclusive: 15.8 µM [falling, partial curve]",
CCOC(=O)C1=C(c2ccccc2)OC(N)=C(C#N)C1c1cccs1 (stereo not drawn),,inconclusive: -9.33%
Cc1c[nH]c2cccc(OCC(CNC(C)(C)C)OC(=O)c3ccccc3)c12 (stereo not drawn),,inconclusive: -6.96%
COc1ccc(Cc2nc3ccccc3n2CC(=O)N/N=C/c2ccc(C)cc2O)cc1OC,,inactive: -7.13%
COc1ccccc1C(c1nnnn1CCc1ccccc1)N1CCCCCC1 (stereo not drawn),,inconclusive: -16.9%
CCCC(=O)Nc1sc2c(c1C#N)CCCCC2,,inconclusive: 13.5%
O=C(COC(=O)c1ccc(Cl)nc1)Nc1ccc2ccccc2c1,,inconclusive: 11.1%
Fc1ccccc1CNCC1CCCO1 (stereo not drawn),,inactive: 2.65%
O=c1c2[nH]c3ccccc3c2ncn1Cc1ccco1,"inconclusive: 35.5 µM [falling, single point]",
Nc1c(S(=O)(=O)c2cccc(Cl)c2)c2nc3ccccc3nc2n1/N=C/c1ccc(O)c(O)c1,,inconclusive: 11.4%
COC(=O)c1cc(NS(=O)(=O)c2ccc(N3CCC(C)CC3)c([N+](=O)[O-])c2)cc(C(=O)OC)c1,,inconclusive: 13.6%
Cc1cc(C(F)(F)F)nn1CC(=O)NNC(=S)Nc1ccc(Cl)cc1,,inactive: 9.16%
O=[N+]([O-])c1cccc(-c2nnc(-c3ccccc3F)o2)c1,,inconclusive: 1.58%
Cc1nn(C(=O)c2cccs2)c(N)c1-c1ccccc1,,inconclusive: 6.65%
C=CCNC(=O)c1ccccc1NC(=O)COc1ccccc1,,inconclusive: -13.3%
O=[N+]([O-])c1nn(-c2ccc(Cl)cc2)n(O)c1=NCc1ccccc1,"inconclusive: 35.5 µM [rising, partial curve, poor fit]",
CCn1c(=O)c([N+](=O)[O-])c(Cl)c2ccccc21,,inconclusive: 16%
C=CCn1c(=NC(=O)c2cccs2)sc2cc(NC(C)=O)ccc21,"inconclusive: 22.4 µM [falling, single point]",

SMILES,Potency,"activity change, negative = inhibition"
Oc1ccc(Br)cc1-c1nc2cnccn2c1NC1CCCCC1,,inconclusive: 26.5%
CCn1c(SCc2ccc(Cl)cc2)nc2nc3c(cc2c1=O)CCCC3,,inactive: 3.26%
O=S(c1ccsc1)c1ccsc1,,inconclusive: 6.16%
COc1ccc(N/N=C(/N=Nc2nc(C)cc(=O)[nH]2)c2ccccc2)cc1,"inconclusive: 0.103 µM [rising, full curve, poor fit]",
O=c1[nH]c(CSc2nc(-c3ccccc3)cs2)nc2ccccc12,,inconclusive: -3.63%
CC(C)Cc1ccc(S(=O)(=O)N2CCN(C(=O)c3ccco3)CC2)cc1,,inconclusive: 0.747%
COc1cccc(C(=O)N2CCn3c2nc2ccccc23)c1,,inconclusive: 0.88%
COc1ccc(-c2c(N)nnc3c2[nH]c2ccccc23)cc1OC,"inconclusive: 12.6 µM [falling, partial curve]",
CC1=CC(c2ccccc2)=NS(=O)(=O)N1,,inconclusive: 2.69%
CN(C)c1nnnn1-c1ccc(Oc2ncc(C(F)(F)F)cc2Cl)cc1,,inconclusive: -6.74%
Cc1nn(Cc2c(Cl)cccc2Cl)c(C)c1NC(=O)c1sc2ccccc2c1Cl,,inactive: -7.95%
CCONC(=O)Nc1ccccc1[N+](=O)[O-],"inconclusive: 23.1 µM [falling, partial curve]",
CCCCNc1n[n+](C)c(-c2cccc(C)c2)s1,,inactive: 1.9%
CC(=O)c1c(C)[nH]c(C(=O)Nc2ccc(C)cc2Br)c1C,,inconclusive: 12.1%
CCN(C(=O)c1ccc2c(=O)n3c(nc2c1)CCCCC3)c1ccc(F)cc1,,inactive: 7.8%
O=S(=O)(Cc1cc(NCc2ccccc2)nc(-c2ccccn2)n1)c1ccccc1,,inactive: 11.6%
CCCn1c(=O)c(C(=O)Nc2cc(C)ccn2)c(O)c2ccccc21,,inconclusive: 11.4%
C[n+]1nc(Nc2cccc(F)c2)sc1-c1ccc(C(=O)O)cc1,"inconclusive: 12.6 µM [falling, partial curve]",
COc1ccc([C@H]2[C@@H]3C=CCC[C@@]3(C)C(=O)N2Cc2ccccc2)cc1Cl,,inconclusive: -14.4%
O=C(NCC1CCCCC1)C1(CC2CC(c3cccc(Br)c3)=NO2)CCNCC1 (stereo not drawn),,inconclusive: -18.8%
CCCc1cc(=O)n2nc(N3CCC(C(=O)Nc4cccc(C(C)=O)c4)CC3)sc2n1,,inconclusive: -0.726%

SMILES,Potency,"activity change, negative = inhibition"
C/C(O)=C(/C#N)c1nc2ccccc2[nH]1,,inconclusive: 3.32%
Clc1ccccc1-c1nc2ccccc2c2nc3ccccc3n12,,inactive: -1.48%
CN(C)CCCNC(=O)C[C@H]1C[C@H](C(=O)N2CCCCC2)[C@@]2(C)c3[nH]c4cc(CCC(=O)N(C)C)ccc4c3CCN2C1=O,,inactive: 0.453%
CCCCCCOC(=O)C(C#N)c1nc2ccccc2nc1N1CCN(CC)CC1 (stereo not drawn),,inactive: 10.5%
Cc1ccc(C(c2sc3nc(-c4ccco4)nn3c2O)N2CCN(c3ccc(F)cc3)CC2)cc1 (stereo not drawn),,inactive: 4.75%
CC(C)(C)NC(=O)CCC1COc2ccccc2O1 (stereo not drawn),"inconclusive: 11.6 µM [rising, partial curve, poor fit]",
COc1ccc(/C(C)=N/NC(=O)c2ccccc2N)cc1,"inconclusive: 25.1 µM [falling, partial curve]",
COc1ccc(NC(=O)n2ncc3c(C)cccc32)cc1OC,"inconclusive: 17.8 µM [falling, single point]",
CCCCN(C)C(=O)CCC(=O)NNc1nc2ccccc2c2nc(C)nn12,,inactive: -1.98%
Cc1ccc2nc(SCC(=O)Nc3ccc4c(c3)OCCO4)nc(=O)n2c1,,inconclusive: -12.2%
C/C(=N\NC(=O)c1ccco1)c1ccc(NC(=O)C(F)(F)F)cc1,,inconclusive: -11.4%
COc1cc2c(cc1OC)C(COc1cc(C)cc(C)c1)N(C(=O)C(C)(C)C)CC2 (stereo not drawn),,inconclusive: -4.08%
Fc1cccc(/C=N/N=C/c2cccc(F)c2)c1,,inconclusive: 18.7%
CC1Nc2ncnc(N3CCN(c4ccccc4)CC3)c2N(Cc2ccc(Br)cc2)C1=O (stereo not drawn),,inactive: -4.55%
Cc1c(C(=O)Nc2c(F)cccc2F)sc2ncn(Cc3ccccc3F)c(=O)c12,,inconclusive: 10%
N#Cc1cccc(-n2nnnc2-c2ccccn2)c1,,inconclusive: 4.21%
Cc1cc(C(=O)N/N=C/c2cccc3ccccc23)c(C)o1,"inconclusive: 17.8 µM [falling, partial curve]",
Cc1sc(N(C(=O)CCc2ccccc2)c2ccc(C(=O)O)cc2)nc1-c1ccccc1,,inconclusive: 371%
CCOC(=O)Cc1nnc(NCc2ccccc2)c2ccccc12,,inconclusive: -5.76%
CCC1CCc2c(sc(NC(=O)c3cnccn3)c2C(N)=O)C1 (stereo not drawn),,inactive: 7.13%
O=C(CSc1nnc(CNC(=O)c2c(F)cccc2F)o1)NCc1ccc(F)cc1,,inactive: 0.639%

# An excerpt from above in order of molecular weight, largest number first:
SMILES,Potency,"activity change, negative = inhibition"
O=C(COC(=O)c1ccc(Cl)nc1)Nc1ccc2ccccc2c1,,inconclusive: 11.1%
O=[N+]([O-])c1cccc(-c2nnc(-c3ccccc3F)o2)c1,,inconclusive: 1.58%
COc1ccc(/C(C)=N/NC(=O)c2ccccc2N)cc1,"inconclusive: 25.1 µM [falling, partial curve]",

# Remaining list, next part:

SMILES,Potency,"activity change, negative = inhibition"
CC(=O)c1sc(NC(=O)c2ccc(C(C)(C)C)cc2)nc1C,"inconclusive: 35.5 µM [rising, single point]",
COc1cc2c(c(OC)c1OC)C(c1ccc3c(c1)OCO3)CC(=O)O2 (stereo not drawn),,inconclusive: -1.67%
COc1ccccc1NS(=O)(=O)c1cc(Cl)ccc1OC,,inconclusive: 3.13%
O=C(NC1CC1)c1cccc(NC(=O)c2cn3ccccc3n2)c1,"inconclusive: 23.1 µM [falling, partial curve, poor fit]",
COc1ccc(C)cc1S(=O)(=O)Nc1ccc(-n2c(C)nc3ccccc3c2=O)cc1,,inactive: -3.91%
Cc1ccc(N(CC(=O)NCC2CCCO2)S(=O)(=O)c2ccccc2)c(C)c1 (stereo not drawn),,inconclusive: 0.973%
COc1cc(CC(=O)Nc2nc(C)cs2)cc(OC)c1OC,,inactive: 0.878%
O=[N+]([O-])c1ccc(N/N=C\c2cccnc2)nc1,,inactive: 13.3%
Cc1ccc(N(Cc2cc3ccc(C)cc3[nH]c2=O)C(=O)c2ccco2)c(C)c1,,inactive: 4.08%
O=C(Cn1c(=O)c2cccn2c2ccccc21)NCc1cccc(F)c1,,inconclusive: 3.65%
COC(=O)[C@]1(CC(C)C)N[C@H](c2ccc(SC3CCCCC3)cc2)[C@@H]2C(=O)N(C)C(=O)[C@@H]21,,inactive: 1.05%
CCc1nnc(NS(=O)(=O)c2ccc(NCc3cc(Cl)cc(Cl)c3O)cc2)s1,,inconclusive: -7.65%
COc1ccc([C@]23Cc4cc(OC)c(OC)cc4C(O2)C2=C(CC(C)(C)CC2=O)O3)cc1,,inactive: 23.7% [at 9.22 µM]
COc1ccc(CNC(=O)Cn2cccc2C(=O)c2ccccc2)cc1,,inactive: -10.8%
COc1ccc(OC)c(NC(=O)CSc2nc(=O)n(Cc3ccccn3)c3c2CCC3)c1,,inconclusive: 11.3%
Cc1ccc(OCC(=O)Nc2ccccc2[N+](=O)[O-])c(Br)c1,"inconclusive: 3.55 µM [rising, partial curve, poor fit]",
CN(C)c1ccc(-c2ccccc2)nn1,,inconclusive: -13%
Cc1ccc(S(=O)(=O)N2CCN(C(=O)C(C)Cn3cncn3)CC2)cc1 (stereo not drawn),,inactive: -2.3%
CC(C)CCN1CN(S(=O)(=O)c2cccs2)c2nc3ccccc3nc21,"inconclusive: 16.4 µM [rising, single point]",
CCOc1c(Br)cc(CNc2ccc(N3CCOCC3)cc2)cc1OC,,inactive: -11.6%

# In another format: 3 of the compounds above
SMILES | Potency | activity change, negative = inhibition
COC(=O)[C@]1(CC(C)C)N[C@H](c2ccc(SC3CCCCC3)cc2)[C@@H]2C(=O)N(C)C(=O)[C@@H]21 |  | inactive: 1.05%
CCc1nnc(NS(=O)(=O)c2ccc(NCc3cc(Cl)cc(Cl)c3O)cc2)s1 |  | inconclusive: -7.65%
COc1ccc([C@]23Cc4cc(OC)c(OC)cc4C(O2)C2=C(CC(C)(C)CC2=O)O3)cc1 |  | inactive: 23.7% [at 9.22 µM]

# — PubChem BioAssay AID493014 (National Center for Advancing Translational Sciences (NCATS), 2011)
